Measured values: US11124788B2, “Asx-specific protein ligase” (NANYANG TECHNOLOGICAL UNIVERSITY, priority 2014, dated 2021)
At least one read-out could not be matched to a standard name with certainty.

System: butelase 1
Assay: Michaelis-Menten kinetics of butelase 1 as a peptide cyclase
Assay type: biochemical, Clitoria ternatea
Settings: butelase 1 cyclization, 37° C.

SFTI-NHV: SEQ ID NO:135, GRCTKSIPPICFPNHV; 16-residue linear substrate
kcat/Km (catalytic efficiency): 10,700 M^−1 s^−1
kcat/Km (catalytic efficiency) (listed as SFT1-NHV): 11,700 M^−1 s^−1
